No constants are given. Whether binding was seen depends on the method and setting. Binding seen in cells or lysates may run through a third protein. Some results given as binding are weak or reduced against the parent protein; the word gives no strength. Blank lines part the entries; values can stand above or below the binder they belong to.
Biological target: Halo-SIRT7 (UniProt Q8BKJ9)
Experiment: pull-down; Halo-SIRT7 immobilised on HaloLink Resin, incubated with lysates of transfected HEK293T cells in pull-down buffer (10 mM Tris-HCl pH 7.4, 150 mM NaCl, 0.5% NP-40, 10 mM nicotinamide, 1 uM TSA) at 4 °C overnight; five washes; western blotting; only the target purified

Amino acid sequences for entries named in this document (tags omitted).
UniProt Q8BKJ9: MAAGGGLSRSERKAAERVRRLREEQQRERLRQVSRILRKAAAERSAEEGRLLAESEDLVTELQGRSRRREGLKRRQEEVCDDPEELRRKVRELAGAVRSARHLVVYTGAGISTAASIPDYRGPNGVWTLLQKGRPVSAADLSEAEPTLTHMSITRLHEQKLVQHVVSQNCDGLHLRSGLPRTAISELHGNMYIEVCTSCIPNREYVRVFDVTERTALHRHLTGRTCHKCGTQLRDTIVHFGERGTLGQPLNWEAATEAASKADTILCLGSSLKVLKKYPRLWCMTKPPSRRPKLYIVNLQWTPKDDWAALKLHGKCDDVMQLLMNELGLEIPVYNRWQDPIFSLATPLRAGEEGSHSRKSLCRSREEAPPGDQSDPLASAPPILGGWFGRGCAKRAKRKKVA

binding: binds
B1: GAL4DBD-IMP2 fragment C1A [381–481] (domain or fragment, UniProt Q5SF07 381-481)
chain: RGVPPSPPYHPFATHSGYFSSLYPHHHFGPFPHHHSYPEQETVSLFIPTQAVGAIIGKKGAHIKQLARFAGASIKIAPAEGPDVSERMVIITGPPEAQFKA

binding: binds
B2: GAL4DBD-IMP2 fragment C [381–592] (domain or fragment, UniProt Q5SF07 381-592)
chain: RGVPPSPPYHPFATHSGYFSSLYPHHHFGPFPHHHSYPEQETVSLFIPTQAVGAIIGKKGAHIKQLARFAGASIKIAPAEGPDVSERMVIITGPPEAQFKAQGRIFGKLKEENFFNPKEEVKLEAHIRVPSSTAGRVIGKGGKTVNELQNLTSAEVIVPRDQTPDENEEVIVRIIGHFFASQTAQRKIREIVQQVKQQEQRYPQGVAPQRSK
